According to patent publication US9399666B2, “Inhibiting interaction between the HIF-1ALPHA and p300/CBP with hydrogen bond surrogate-based helices” (New York University, priority 2008, dated 2016):
For some of these results: At least one peptide structure holds a part that was inferred or is arguable (an end, a ring closure or a residue). For some of these results: At least one compound was matched to its structure with a doubt left.

Amino acid sequences for entries named in this document (tags omitted).
UniProt Q09472, whole entry: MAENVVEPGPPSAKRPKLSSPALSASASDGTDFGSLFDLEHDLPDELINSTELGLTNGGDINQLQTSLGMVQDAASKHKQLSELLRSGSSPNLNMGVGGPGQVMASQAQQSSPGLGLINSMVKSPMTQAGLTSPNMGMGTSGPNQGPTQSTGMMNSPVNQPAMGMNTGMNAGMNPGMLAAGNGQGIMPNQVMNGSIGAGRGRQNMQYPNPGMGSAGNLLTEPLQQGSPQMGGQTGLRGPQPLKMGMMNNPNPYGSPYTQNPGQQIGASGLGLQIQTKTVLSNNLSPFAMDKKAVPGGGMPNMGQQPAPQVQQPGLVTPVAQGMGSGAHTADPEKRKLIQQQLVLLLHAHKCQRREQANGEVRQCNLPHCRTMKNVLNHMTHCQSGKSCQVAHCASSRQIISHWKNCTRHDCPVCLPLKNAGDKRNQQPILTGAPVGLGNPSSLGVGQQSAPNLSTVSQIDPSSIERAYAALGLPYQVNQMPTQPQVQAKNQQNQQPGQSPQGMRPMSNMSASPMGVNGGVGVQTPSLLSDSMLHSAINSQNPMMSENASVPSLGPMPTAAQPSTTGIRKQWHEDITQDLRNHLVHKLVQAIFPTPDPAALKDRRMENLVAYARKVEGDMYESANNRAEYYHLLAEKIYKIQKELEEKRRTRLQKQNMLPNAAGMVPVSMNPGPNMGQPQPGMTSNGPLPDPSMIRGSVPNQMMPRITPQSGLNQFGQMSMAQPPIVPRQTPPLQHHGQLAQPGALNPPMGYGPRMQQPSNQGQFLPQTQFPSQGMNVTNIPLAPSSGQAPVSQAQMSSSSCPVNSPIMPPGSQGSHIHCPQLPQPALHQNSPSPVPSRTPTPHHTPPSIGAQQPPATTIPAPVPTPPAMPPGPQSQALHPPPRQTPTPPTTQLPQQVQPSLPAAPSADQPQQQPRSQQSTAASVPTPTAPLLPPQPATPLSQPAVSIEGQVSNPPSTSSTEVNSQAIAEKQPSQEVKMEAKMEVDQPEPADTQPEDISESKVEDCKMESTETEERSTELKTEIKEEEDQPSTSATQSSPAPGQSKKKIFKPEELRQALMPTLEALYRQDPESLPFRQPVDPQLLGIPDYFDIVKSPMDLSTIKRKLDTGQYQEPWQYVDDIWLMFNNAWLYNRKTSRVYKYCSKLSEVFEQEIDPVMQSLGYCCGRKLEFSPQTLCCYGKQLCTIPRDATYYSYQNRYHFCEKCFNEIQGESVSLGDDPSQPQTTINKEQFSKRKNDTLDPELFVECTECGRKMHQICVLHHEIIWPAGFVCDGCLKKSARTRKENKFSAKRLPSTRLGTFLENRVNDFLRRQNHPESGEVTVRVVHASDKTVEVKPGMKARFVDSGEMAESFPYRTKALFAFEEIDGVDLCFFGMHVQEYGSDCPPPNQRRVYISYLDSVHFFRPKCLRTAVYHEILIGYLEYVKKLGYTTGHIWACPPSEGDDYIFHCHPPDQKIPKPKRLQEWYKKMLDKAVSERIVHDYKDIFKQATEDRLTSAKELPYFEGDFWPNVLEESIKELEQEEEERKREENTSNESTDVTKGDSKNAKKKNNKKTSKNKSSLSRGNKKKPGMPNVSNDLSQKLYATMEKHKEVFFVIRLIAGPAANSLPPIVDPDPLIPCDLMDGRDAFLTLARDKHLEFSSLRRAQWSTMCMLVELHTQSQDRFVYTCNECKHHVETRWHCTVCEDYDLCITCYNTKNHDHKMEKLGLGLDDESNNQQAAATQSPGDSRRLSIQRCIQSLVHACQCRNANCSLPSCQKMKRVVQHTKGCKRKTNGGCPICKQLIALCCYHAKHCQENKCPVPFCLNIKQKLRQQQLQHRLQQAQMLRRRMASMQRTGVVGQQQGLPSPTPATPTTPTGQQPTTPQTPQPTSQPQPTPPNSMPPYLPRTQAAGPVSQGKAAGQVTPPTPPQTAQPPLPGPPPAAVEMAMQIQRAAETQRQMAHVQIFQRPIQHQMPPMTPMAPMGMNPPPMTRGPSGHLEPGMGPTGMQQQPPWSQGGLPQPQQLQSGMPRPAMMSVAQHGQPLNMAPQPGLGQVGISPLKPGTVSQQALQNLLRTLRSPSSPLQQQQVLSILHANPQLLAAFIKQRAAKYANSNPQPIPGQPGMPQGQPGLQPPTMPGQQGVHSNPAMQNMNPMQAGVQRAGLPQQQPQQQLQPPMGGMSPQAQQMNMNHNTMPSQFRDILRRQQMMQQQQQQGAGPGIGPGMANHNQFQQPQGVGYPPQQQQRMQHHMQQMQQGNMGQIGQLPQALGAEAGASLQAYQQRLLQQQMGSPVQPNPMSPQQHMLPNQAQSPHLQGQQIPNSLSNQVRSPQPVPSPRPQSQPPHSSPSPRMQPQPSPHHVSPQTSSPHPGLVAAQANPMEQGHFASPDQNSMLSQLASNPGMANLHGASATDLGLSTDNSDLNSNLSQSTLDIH

Tests used:
[1] = Percent helicity by circular dichroism spectroscopy; format: physicochemical
From the text: (§1) Helix αA of HIF-1α C-TAD, shown in FIG. 1A and FIG. 1C, is critical for the interaction between the CH1 domain and HIF-1α, because mutation of its residues or hydroxylation of Asn803 is known to disrupt this complex and inhibit HIF-1α mediated transcription (Freedman et al., “Structural Basis for Recruitment of CBP/p300 by Hypoxia-inducible Factor-1α,” Proc. Nat'l Acad. Sci. USA 99:5367-72 (2002); Dames et al., “Structural Basis for Hif-1α/CBP Recognition in the Cellular Hypoxic Response,” Proc. Nat'1 Acad. Sci. USA 99:5271-6 (2002). Development of HBS helices as potential inhibitors of VEGF transcription was begun by mimicking the aA helix region of HIF-1. This helix consists of eight residues, […] […] The percent helicity of each peptide was determined using circular dichroism spectroscopy in 10 mM phosphate buffered saline as described in (Wang et al., “Evaluation of Biologically Relevant Short α-Helices Stabilized by a Main-chain Hydrogen-bond Surrogate,” J. Am. Chem. Soc. 128:9248-56 (2006)). […] The ability of each peptide to downregulate VEGF transcription in cell culture was evaluated by […] quantitative RT-PCR, as described above. The cytotoxicity of each peptide was determined by monitoring cellular growth and population doubling in the presence of individual peptides at 1μM concentration.

p300 = p300 (Homo sapiens, UniProt Q09472); experiment: Affinity for p300 by isothermal titration calorimetry; format: binding; settings: ITC
From the text: as §1

[2] = tested on: HIF-1α C-TAD and p300/CBP; settings: literature (Kung et al. 2004); cited from earlier work

SMILES	Helical content (in words) [1]	% Helicity ([1]; 10 mM phosphate buffered saline) [%]	Affinity for p300 (in words) (p300)	Inhibition of interaction between HIF-1α C-TAD and p300/CBP [2]
CC(C)[C@H](NC(=O)[C@H](CCC(=O)O)NC(=O)[C@H](CS)NC(=O)[C@H](CC(=O)O)NC(=O)[C@H](Cc1ccc(O)cc1)N1CC=CCCC(=O)N[C@@H]([C@@H](C)O)C(=O)N[C@@H](C)C1=O)C(=O)N[C@@H](CC(N)=O)C(=O)N[C@@H](C)C(N)=O [Compound 20]	significantly more helical than its corresponding unconstrained analog, peptide 24	44	bound p300 with significant affinities	–
CN1C(=O)[C@@]23C[C@]4([C@]56C[C@@]78SS[C@@](CO)(C(=O)N7[C@H]5Nc5ccccc56)N(C)C8=O)c5ccccc5N[C@@H]4N2C(=O)[C@]1(CO)SS3 [chaetocin 1, chaetocin]	–	–	–	inhibit the interaction between HIF-1α C-TAD and p300/CBP
